PubChem BioAssay AID1224829 – NIAID, 2016
This is an unselected part of about 3,800 reagents. 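Calls cover raised and lowered translocation; gene median uses one vendor's three siRNAs; qiagen siRNAs acted more weakly than ambion siRNAs.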 Reagents against one gene are numbered here. No sequences are given here.

Test: 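Secondary check of hits that alter LPS-induced p65 translocation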 (follow-up of hits)
Cell system: mouse RAW264.7 G9 macrophage reporter cells
Knock-down reagent: single siRNA against mouse genes, 100 nM
Timing: 2 days of siRNA knock-down, then 40 min of LPS before fixing
Conditions: LPS (Salmonella minnesota R595) at 10 ng/ml
Measured: 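High-content images after 40 min LPS exposure; GFP-p65 nucleus to surrounding ring signal ratio, normalised to plate median and non-targeting control wells, expressed as z-score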
Scale: p65 translocation z-score and gene median z-score, per vendor: higher = more nuclear NF-kappaB p65 after LPS
Hit rule: 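An siRNA is called active when the mean z-score of its two replicates is above 2 or below -2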
Calls: active = changed p65 translocation (either direction); inactive = no clear change

| target gene | siRNA no. | siRNA vendor or control pool | p65 translocation z-score, replicate mean | p65 translocation z-score, replicate 1 | p65 translocation z-score, replicate 2 | gene median z-score, per vendor | activity call |
| --- | --- | --- | --- | --- | --- | --- | --- |
| Lrrc19 (leucine rich repeat containing 19) | 1 | ambion single siRNA | -0.991 | -0.718 | -1.26 | -2.14 | inactive |
| Lrrc19 (leucine rich repeat containing 19) | 2 | ambion single siRNA | -2.18 | -2.2 | -2.16 | -2.14 | active |
| Lrrc19 (leucine rich repeat containing 19) | 3 | ambion single siRNA | -3.3 | -2.12 | -4.48 | -2.14 | active |
| Plgrkt | 1 | ambion single siRNA | -4.43 | -4.44 | -4.42 | -4.96 | active |
| Plgrkt | 2 | ambion single siRNA | -5.6 | -6.96 | -4.23 | -4.96 | active |
| Plgrkt | 3 | ambion single siRNA | -7.39 | -9.3 | -5.48 | -4.96 | active |
| Plgrkt | 4 | qiagen single siRNA | 1.37 | 0.122 | 2.62 | 0.878 | inactive |
| Plgrkt | 5 | qiagen single siRNA | -1.17 | -0.837 | -1.49 | 0.878 | inactive |
| Plgrkt | 6 | qiagen single siRNA | 2.75 | 1.63 | 3.86 | 0.878 | active |
| Rai2 (retinoic acid induced 2) | 1 | ambion single siRNA | 1.03 | 1.59 | 0.478 | 1.6 | inactive |
| Rai2 (retinoic acid induced 2) | 2 | ambion single siRNA | 2.44 | 3.22 | 1.67 | 1.6 | active |
| Rai2 (retinoic acid induced 2) | 3 | ambion single siRNA | 0.108 | 1.61 | -1.39 | 1.6 | inactive |
| Rai2 (retinoic acid induced 2) | 4 | qiagen single siRNA | 0.0403 | 0.555 | -0.474 | -0.000538 | inactive |
| Rai2 (retinoic acid induced 2) | 5 | qiagen single siRNA | 1.25 | 0.473 | 2.04 | -0.000538 | inactive |
| Rai2 (retinoic acid induced 2) | 6 | qiagen single siRNA | -1.53 | -1.34 | -1.72 | -0.000538 | inactive |
| Map6 (microtubule-associated protein 6) | 1 | ambion single siRNA | -2.02 | -1.92 | -2.12 | -2.36 | active |
| Map6 (microtubule-associated protein 6) | 2 | ambion single siRNA | -1.43 | -2.61 | -0.255 | -2.36 | inactive |
| Map6 (microtubule-associated protein 6) | 3 | ambion single siRNA | -3.55 | -3.79 | -3.31 | -2.36 | active |
| Map6 (microtubule-associated protein 6) | 4 | qiagen single siRNA | -2.29 | -2.16 | -2.42 | -1.82 | active |
| Map6 (microtubule-associated protein 6) | 5 | qiagen single siRNA | -0.558 | -1.27 | 0.157 | -1.82 | inactive |
| Map6 (microtubule-associated protein 6) | 6 | qiagen single siRNA | -2.98 | -1.48 | -4.49 | -1.82 | active |
| S1pr2 (sphingosine-1-phosphate receptor 2) | 1 | ambion single siRNA | 1.07 | 2.47 | -0.32 | -1.76 | inactive |
| S1pr2 (sphingosine-1-phosphate receptor 2) | 2 | ambion single siRNA | -1.76 | -1.93 | -1.59 | -1.76 | inactive |
| S1pr2 (sphingosine-1-phosphate receptor 2) | 3 | ambion single siRNA | -2.81 | -2.12 | -3.5 | -1.76 | active |
| S1pr2 (sphingosine-1-phosphate receptor 2) | 4 | qiagen single siRNA | 2.93 | 2.19 | 3.66 | -0.833 | active |
| S1pr2 (sphingosine-1-phosphate receptor 2) | 5 | qiagen single siRNA | -0.833 | -1.33 | -0.34 | -0.833 | inactive |
| S1pr2 (sphingosine-1-phosphate receptor 2) | 6 | qiagen single siRNA | -3.33 | -1.86 | -4.79 | -0.833 | active |
| Klra19 (killer cell lectin-like receptor, subfamily A, member 19) | 1 | ambion single siRNA | -0.0444 | 0.489 | -0.578 | -0.354 | inactive |
| Klra19 (killer cell lectin-like receptor, subfamily A, member 19) | 2 | ambion single siRNA | -1.78 | -2.98 | -0.583 | -0.354 | inactive |
| Klra19 (killer cell lectin-like receptor, subfamily A, member 19) | 3 | ambion single siRNA | 0.208 | -0.131 | 0.546 | -0.354 | inactive |
| Klra19 (killer cell lectin-like receptor, subfamily A, member 19) | 4 | qiagen single siRNA | -0.785 | 0.781 | -2.35 | -0.258 | inactive |
| Klra19 (killer cell lectin-like receptor, subfamily A, member 19) | 5 | qiagen single siRNA | 0.879 | -3 | 4.76 | -0.258 | inactive |
| Klra19 (killer cell lectin-like receptor, subfamily A, member 19) | 6 | qiagen single siRNA | 1.94 | -1.3 | 5.18 | -0.258 | inactive |
| Rbmx (RNA binding motif protein, X chromosome) | 1 | ambion single siRNA | 0.112 | 0.826 | -0.602 | -1.61 | inactive |
| Rbmx (RNA binding motif protein, X chromosome) | 2 | ambion single siRNA | -1.98 | -0.496 | -3.47 | -1.61 | inactive |
| Rbmx (RNA binding motif protein, X chromosome) | 3 | ambion single siRNA | -2.92 | -3.21 | -2.63 | -1.61 | active |
